# Measured values taken from PubChem BioAssay AID493014 (National Center for Advancing Translational Sciences (NCATS), 2011).
# The list shows a part of the results. The main result of the screen is listed elsewhere. These columns were measured beside it and carry no call. Compounds called inactive in the main read-out are mostly missing here. Potencies come from curve fits of mixed quality, noted in brackets.
# Test: qHTS Assay to Find Inhibitors of Chronic Active B-Cell Receptor Signaling
# Details: ABC-DLBCL IkBa-CBG/CBR reporter, luminescence ratio (green luciferase fused to IkBa over red control in TMD8 lymphoma cells), 4 h
# Summary of the method: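 Compounds up to 46 uM were incubated four hours with TMD8 cells whose green CBG68 luciferase is fused to IkappaBalpha; red CBR luminescence normalised the signal, and concentration-effect curves were fitted to fusion, red and ratio data.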
# [1] = measured here: CBR red luminescence, cell number
# [2] = measured here: IkBa-CBG green luminescence
Compound,AC50 [1],AC50 [2]
O=C(CNC(=O)c1cc2c(n(-c3ccccc3)c1=O)CCCC2=O)c1ccccc1,"35.5 µM [rising, single point]",–
Cc1nn(C)c(C(=O)NNC(=S)NCC(C)C)c1Cl,"10.3 µM [rising, partial curve, poor fit]",–
O=C(O)c1ccccc1NS(=O)(=O)c1cccc2cccnc12,"2.31 µM [falling, partial curve]",–
CCCCCOC(=O)c1ccc(OC(=O)c2cncc(Br)c2)cc1,"3.16 µM [rising, full curve]",–
COc1cc(NS(=O)(=O)c2ccc(NC(=O)/C(=C/c3ccccc3Cl)NC(=O)c3ccccc3)cc2)nc(OC)n1,"11.6 µM [rising, partial curve, poor fit]",–
CCOC(=O)C(C)c1ccc2cc(OC)ccc2c1 (stereo not drawn),"35.5 µM [rising, single point]",–
C/C(=N\NC(=O)c1ccc2c(c1)OCO2)c1ccco1,"4.47 µM [falling, partial curve]",–
CCOc1ccc2nc(SCc3ccccc3C#N)sc2c1,"22.4 µM [rising, partial curve, poor fit]",–
c1ccc(-c2nc(NCC3CCCO3)c3oc4ccccc4c3n2)cc1 (stereo not drawn),"8.2 µM [falling, partial curve, poor fit]",–
Fc1ccc(NC(=S)NNc2ncc(C(F)(F)F)cc2Cl)c(F)c1,"35.5 µM [falling, single point]",–
COc1ccc(CNC(=O)c2cc(C(C)=O)c[nH]2)cc1,"20 µM [rising, partial curve, poor fit]",–
COc1ccccc1NCC(O)COc1ccc(C(C)(C)C)cc1 (stereo not drawn),"22.4 µM [falling, single point]",–
O=C(CCC(=O)Nc1ccccc1Cl)NN=C1CCCC1,"0.631 µM [falling, partial curve, poor fit]",–
COc1ccc(C)cc1NC(=O)c1cccc(C(=O)Nc2cc(C)ccc2OC)c1,"11.2 µM [falling, partial curve, poor fit]",–
COc1cc(/C=N/N(C)c2ccccc2)ccc1O,"0.731 µM [rising, full curve]","18.4 µM [falling, partial curve]"
N#CC(C#N)=C1C=CC=CN1/C(=C\c1ccccc1Cl)C(=O)c1ccccc1,"29.1 µM [falling, single point]",–
Cc1ccc(S(=O)(=O)c2nc(NN(C)C)sc2Cl)cc1,"17.8 µM [falling, single point]",–
O=C(CSc1nnc(Cc2ccccc2)o1)NCc1ccco1,"4.47 µM [rising, single point]",–
O=C(COC(=O)c1cccnc1Cl)NC(=O)NC1CCCCC1,"18.4 µM [rising, single point]",–
CC12CN3CC(C)(CN(C1)C3c1ccccc1F)C2 (stereo not drawn),"1.41 µM [rising, partial curve, poor fit]",–
CCN(CC(=O)Nc1cccc(F)c1)Cc1nc2ccccc2c(=O)[nH]1,"35.5 µM [falling, single point]",–

# For convenience, part of the list above:
Compound,AC50 [1],AC50 [2]
Cc1nn(C)c(C(=O)NNC(=S)NCC(C)C)c1Cl,"10.3 µM [rising, partial curve, poor fit]",–
O=C(O)c1ccccc1NS(=O)(=O)c1cccc2cccnc12,"2.31 µM [falling, partial curve]",–
CCCCCOC(=O)c1ccc(OC(=O)c2cncc(Br)c2)cc1,"3.16 µM [rising, full curve]",–

# Continued.

Compound,AC50 [1],AC50 [2]
C[C@]1(C(=O)NCc2cc(F)cc(C(F)(F)F)c2)C=C[C@@H](Cc2ccccc2)N1C(=O)c1ccccc1,"20.6 µM [falling, single point]","25.9 µM [rising, partial curve, poor fit]"
O=c1c2ccccc2oc2cc(-c3ccc4cc[nH]c4c3)ccc12,"8.2 µM [rising, partial curve, poor fit]",–
N#C/C(C(N)=O)=c1/ccc2c(c1)N1C3=C(CCCC3)CC3CCCCC31N=2 (stereo not drawn),"22.4 µM [falling, single point]","17.8 µM [rising, single point]"
C=CCSc1nnc(-c2nnc(SCC=C)n2-c2ccccc2)n1-c1ccccc1,"12.6 µM [falling, single point]",–
Cc1ccc(CN2CCSc3ccc(C(=O)NCc4cccnc4)cc32)cc1,"35.5 µM [falling, single point]",–
O=C(Nc1ccc(F)cc1F)N1CCCN(CCOc2ccccc2)CC1,"35.5 µM [rising, single point]",–
O=C(OCc1ccc(Br)cc1)c1cccnc1Cl,"14.1 µM [rising, partial curve, poor fit]",–
Cc1cc(C)c2nc(NNC(=O)c3cc(=O)c4ccccc4o3)sc2c1,"3.98 µM [falling, full curve]",–
COc1ccc(C(=O)NC2CCN(C(=S)Nc3ccc(C)cc3)CC2)cc1,"3.16 µM [rising, full curve]",–
O=C(NCCc1ccc(F)cc1)Nc1ccccc1Cl,"12.6 µM [falling, partial curve]",–
O=C(Cn1cc2c(n1)CCCC2)NCc1ccccn1,"7.31 µM [rising, partial curve, poor fit]",–
CCCn1nc(Oc2nc(NCC)nc(NC(C)C)n2)ccc1=O,"20 µM [rising, single point]",–
COc1ccc(Cc2nn3c(-c4ccccc4Br)nnc3s2)cc1,"29.1 µM [falling, single point]",–
O=C1NC(=S)N/C1=C/c1ccc(-c2c(Br)cc([N+](=O)[O-])cc2Br)o1,"18.4 µM [rising, single point]",–
CCOc1cccc(C(c2c(C)n(C)n(-c3ccccc3)c2=O)c2c(C)n(C)n(-c3ccccc3)c2=O)c1OC,"20 µM [falling, single point]",–
CCOC(=O)[C@H]1[C@H]2COc3ccc(Cl)cc3[C@@H]2N2C(=O)c3cc(F)c(F)cc3NC(=O)[C@@]12C,"20.6 µM [falling, single point]",–
CC(C)C(=O)Nc1ccccc1C(=O)OCC(=O)c1ccc2c(c1)OCCO2,"29.1 µM [falling, single point]",–
COc1cccc(C(=O)NC(=S)Nc2ccccc2N2CCOCC2)c1,"0.447 µM [falling, full curve, poor fit]",–
Cc1ccc(S(=O)(=O)N2CCN(C(=O)CSC(=S)N3CCCC3)CC2)c(C)c1,"1.64 µM [rising, partial curve]","4.61 µM [falling, partial curve, poor fit]"
COc1cc(-c2[nH]ncc2CN2CCCC2c2nonc2C)cc(OC)c1OC (stereo not drawn),"6.31 µM [rising, single point]",–
COc1ccc(CCNC(=O)c2ccc(S(=O)(=O)N3CCCCC3)cc2)cc1,"4.61 µM [rising, partial curve, poor fit]",–

Compound,AC50 [1],AC50 [2]
O=C(O)c1cnn2c(C(F)(F)F)cc(-c3ccccc3)nc12,"6.51 µM [falling, single point]",–
CCCCCC(=O)Nc1ccc(-c2csc(N)n2)cc1,"20 µM [falling, single point]",–
O=C(CC1c2ccccc2Oc2ccccc21)N1CCN(c2ccccn2)CC1,"22.4 µM [falling, partial curve]",–
O=Cc1c(N2CCCCCC2)nc2ccccn2c1=O,"29.1 µM [rising, single point]",–
O=C(Nc1ccc2c(c1)OCO2)c1ccccc1,"7.08 µM [falling, full curve, poor fit]",–
CCCc1nc2ccccc2n1CCOc1ccccc1,"5.8 µM [falling, partial curve]",–
CC1=NN(C(N)=S)C(=O)C1N=Nc1cccc(C)c1 (stereo not drawn),"0.708 µM [rising, full curve, poor fit]","1.41 µM [falling, full curve]"
CC(CC(=O)Nc1ccc(Cl)c([N+](=O)[O-])c1)c1ccccc1 (stereo not drawn),"10 µM [rising, partial curve, poor fit]",–
O=c1[nH]c(=S)n(-c2cccc(Cl)c2)c(O)c1/C=N/N1CCOCC1,"15.8 µM [rising, single point]",–
O=C(Nc1cccc(Cl)c1)c1cccc(Oc2ccc([N+](=O)[O-])cc2Cl)c1,"23.1 µM [falling, single point]",–
COc1ccc(OC)c(C2C3=C(N=C4SCC(=O)N42)c2ccccc2CC3)c1 (stereo not drawn),"35.5 µM [falling, single point]",–
COc1cc(C(=O)NS(=O)(=O)c2ccccc2C)ccc1Cc1cn(C)c2ccc(NC(=O)OC3CCCC3)cc12,"35.5 µM [falling, single point]",–
CCCNC(=O)Cn1cnc2sc(C(=O)NCCCN3CCOCC3)c(C)c2c1=O,"35.5 µM [falling, single point]",–
CCC/C(O)=C1\C(=O)CC(C)(C)CC1=Nc1ccccc1OC,"14.1 µM [falling, single point]",–
Oc1ccccc1CNc1ccc(OC(F)(F)F)cc1,"2.51 µM [rising, partial curve, poor fit]",–
COc1ccccc1NC(=O)CCCCCN1C(=O)c2cccc3cccc(c23)C1=O,"1.26 µM [rising, full curve]",–
Cc1ccc(S(=O)(=O)NCc2ccc(/C=C(/C#N)C(=O)NCc3ccccc3)o2)cc1,"7.31 µM [rising, partial curve, poor fit]",–
Cc1cccc2cc(CN(Cc3cccs3)C(c3nnnn3C3CCCC3)C(C)C)c(=O)[nH]c12 (stereo not drawn),"15.8 µM [falling, partial curve, poor fit]",–
CC1CCN(C(=O)CSc2nnc(-c3cccs3)o2)CC1,"3.55 µM [rising, single point]",–
CCN=c1sc2ccccc2n1CC(O)COc1ccccc1 (stereo not drawn),"18.4 µM [falling, partial curve]",–
CCC(=O)Nc1ccc(NC(=O)c2oc3ccccc3c2C)cc1,"35.5 µM [rising, single point]",–
